Drawing on paper PMC12714281, this text covers binding for six molecules.

Chains of the proteins cited; added tags and fusions are not shown. Residues count along the entry.
UniProt P04114, residues 28-4563: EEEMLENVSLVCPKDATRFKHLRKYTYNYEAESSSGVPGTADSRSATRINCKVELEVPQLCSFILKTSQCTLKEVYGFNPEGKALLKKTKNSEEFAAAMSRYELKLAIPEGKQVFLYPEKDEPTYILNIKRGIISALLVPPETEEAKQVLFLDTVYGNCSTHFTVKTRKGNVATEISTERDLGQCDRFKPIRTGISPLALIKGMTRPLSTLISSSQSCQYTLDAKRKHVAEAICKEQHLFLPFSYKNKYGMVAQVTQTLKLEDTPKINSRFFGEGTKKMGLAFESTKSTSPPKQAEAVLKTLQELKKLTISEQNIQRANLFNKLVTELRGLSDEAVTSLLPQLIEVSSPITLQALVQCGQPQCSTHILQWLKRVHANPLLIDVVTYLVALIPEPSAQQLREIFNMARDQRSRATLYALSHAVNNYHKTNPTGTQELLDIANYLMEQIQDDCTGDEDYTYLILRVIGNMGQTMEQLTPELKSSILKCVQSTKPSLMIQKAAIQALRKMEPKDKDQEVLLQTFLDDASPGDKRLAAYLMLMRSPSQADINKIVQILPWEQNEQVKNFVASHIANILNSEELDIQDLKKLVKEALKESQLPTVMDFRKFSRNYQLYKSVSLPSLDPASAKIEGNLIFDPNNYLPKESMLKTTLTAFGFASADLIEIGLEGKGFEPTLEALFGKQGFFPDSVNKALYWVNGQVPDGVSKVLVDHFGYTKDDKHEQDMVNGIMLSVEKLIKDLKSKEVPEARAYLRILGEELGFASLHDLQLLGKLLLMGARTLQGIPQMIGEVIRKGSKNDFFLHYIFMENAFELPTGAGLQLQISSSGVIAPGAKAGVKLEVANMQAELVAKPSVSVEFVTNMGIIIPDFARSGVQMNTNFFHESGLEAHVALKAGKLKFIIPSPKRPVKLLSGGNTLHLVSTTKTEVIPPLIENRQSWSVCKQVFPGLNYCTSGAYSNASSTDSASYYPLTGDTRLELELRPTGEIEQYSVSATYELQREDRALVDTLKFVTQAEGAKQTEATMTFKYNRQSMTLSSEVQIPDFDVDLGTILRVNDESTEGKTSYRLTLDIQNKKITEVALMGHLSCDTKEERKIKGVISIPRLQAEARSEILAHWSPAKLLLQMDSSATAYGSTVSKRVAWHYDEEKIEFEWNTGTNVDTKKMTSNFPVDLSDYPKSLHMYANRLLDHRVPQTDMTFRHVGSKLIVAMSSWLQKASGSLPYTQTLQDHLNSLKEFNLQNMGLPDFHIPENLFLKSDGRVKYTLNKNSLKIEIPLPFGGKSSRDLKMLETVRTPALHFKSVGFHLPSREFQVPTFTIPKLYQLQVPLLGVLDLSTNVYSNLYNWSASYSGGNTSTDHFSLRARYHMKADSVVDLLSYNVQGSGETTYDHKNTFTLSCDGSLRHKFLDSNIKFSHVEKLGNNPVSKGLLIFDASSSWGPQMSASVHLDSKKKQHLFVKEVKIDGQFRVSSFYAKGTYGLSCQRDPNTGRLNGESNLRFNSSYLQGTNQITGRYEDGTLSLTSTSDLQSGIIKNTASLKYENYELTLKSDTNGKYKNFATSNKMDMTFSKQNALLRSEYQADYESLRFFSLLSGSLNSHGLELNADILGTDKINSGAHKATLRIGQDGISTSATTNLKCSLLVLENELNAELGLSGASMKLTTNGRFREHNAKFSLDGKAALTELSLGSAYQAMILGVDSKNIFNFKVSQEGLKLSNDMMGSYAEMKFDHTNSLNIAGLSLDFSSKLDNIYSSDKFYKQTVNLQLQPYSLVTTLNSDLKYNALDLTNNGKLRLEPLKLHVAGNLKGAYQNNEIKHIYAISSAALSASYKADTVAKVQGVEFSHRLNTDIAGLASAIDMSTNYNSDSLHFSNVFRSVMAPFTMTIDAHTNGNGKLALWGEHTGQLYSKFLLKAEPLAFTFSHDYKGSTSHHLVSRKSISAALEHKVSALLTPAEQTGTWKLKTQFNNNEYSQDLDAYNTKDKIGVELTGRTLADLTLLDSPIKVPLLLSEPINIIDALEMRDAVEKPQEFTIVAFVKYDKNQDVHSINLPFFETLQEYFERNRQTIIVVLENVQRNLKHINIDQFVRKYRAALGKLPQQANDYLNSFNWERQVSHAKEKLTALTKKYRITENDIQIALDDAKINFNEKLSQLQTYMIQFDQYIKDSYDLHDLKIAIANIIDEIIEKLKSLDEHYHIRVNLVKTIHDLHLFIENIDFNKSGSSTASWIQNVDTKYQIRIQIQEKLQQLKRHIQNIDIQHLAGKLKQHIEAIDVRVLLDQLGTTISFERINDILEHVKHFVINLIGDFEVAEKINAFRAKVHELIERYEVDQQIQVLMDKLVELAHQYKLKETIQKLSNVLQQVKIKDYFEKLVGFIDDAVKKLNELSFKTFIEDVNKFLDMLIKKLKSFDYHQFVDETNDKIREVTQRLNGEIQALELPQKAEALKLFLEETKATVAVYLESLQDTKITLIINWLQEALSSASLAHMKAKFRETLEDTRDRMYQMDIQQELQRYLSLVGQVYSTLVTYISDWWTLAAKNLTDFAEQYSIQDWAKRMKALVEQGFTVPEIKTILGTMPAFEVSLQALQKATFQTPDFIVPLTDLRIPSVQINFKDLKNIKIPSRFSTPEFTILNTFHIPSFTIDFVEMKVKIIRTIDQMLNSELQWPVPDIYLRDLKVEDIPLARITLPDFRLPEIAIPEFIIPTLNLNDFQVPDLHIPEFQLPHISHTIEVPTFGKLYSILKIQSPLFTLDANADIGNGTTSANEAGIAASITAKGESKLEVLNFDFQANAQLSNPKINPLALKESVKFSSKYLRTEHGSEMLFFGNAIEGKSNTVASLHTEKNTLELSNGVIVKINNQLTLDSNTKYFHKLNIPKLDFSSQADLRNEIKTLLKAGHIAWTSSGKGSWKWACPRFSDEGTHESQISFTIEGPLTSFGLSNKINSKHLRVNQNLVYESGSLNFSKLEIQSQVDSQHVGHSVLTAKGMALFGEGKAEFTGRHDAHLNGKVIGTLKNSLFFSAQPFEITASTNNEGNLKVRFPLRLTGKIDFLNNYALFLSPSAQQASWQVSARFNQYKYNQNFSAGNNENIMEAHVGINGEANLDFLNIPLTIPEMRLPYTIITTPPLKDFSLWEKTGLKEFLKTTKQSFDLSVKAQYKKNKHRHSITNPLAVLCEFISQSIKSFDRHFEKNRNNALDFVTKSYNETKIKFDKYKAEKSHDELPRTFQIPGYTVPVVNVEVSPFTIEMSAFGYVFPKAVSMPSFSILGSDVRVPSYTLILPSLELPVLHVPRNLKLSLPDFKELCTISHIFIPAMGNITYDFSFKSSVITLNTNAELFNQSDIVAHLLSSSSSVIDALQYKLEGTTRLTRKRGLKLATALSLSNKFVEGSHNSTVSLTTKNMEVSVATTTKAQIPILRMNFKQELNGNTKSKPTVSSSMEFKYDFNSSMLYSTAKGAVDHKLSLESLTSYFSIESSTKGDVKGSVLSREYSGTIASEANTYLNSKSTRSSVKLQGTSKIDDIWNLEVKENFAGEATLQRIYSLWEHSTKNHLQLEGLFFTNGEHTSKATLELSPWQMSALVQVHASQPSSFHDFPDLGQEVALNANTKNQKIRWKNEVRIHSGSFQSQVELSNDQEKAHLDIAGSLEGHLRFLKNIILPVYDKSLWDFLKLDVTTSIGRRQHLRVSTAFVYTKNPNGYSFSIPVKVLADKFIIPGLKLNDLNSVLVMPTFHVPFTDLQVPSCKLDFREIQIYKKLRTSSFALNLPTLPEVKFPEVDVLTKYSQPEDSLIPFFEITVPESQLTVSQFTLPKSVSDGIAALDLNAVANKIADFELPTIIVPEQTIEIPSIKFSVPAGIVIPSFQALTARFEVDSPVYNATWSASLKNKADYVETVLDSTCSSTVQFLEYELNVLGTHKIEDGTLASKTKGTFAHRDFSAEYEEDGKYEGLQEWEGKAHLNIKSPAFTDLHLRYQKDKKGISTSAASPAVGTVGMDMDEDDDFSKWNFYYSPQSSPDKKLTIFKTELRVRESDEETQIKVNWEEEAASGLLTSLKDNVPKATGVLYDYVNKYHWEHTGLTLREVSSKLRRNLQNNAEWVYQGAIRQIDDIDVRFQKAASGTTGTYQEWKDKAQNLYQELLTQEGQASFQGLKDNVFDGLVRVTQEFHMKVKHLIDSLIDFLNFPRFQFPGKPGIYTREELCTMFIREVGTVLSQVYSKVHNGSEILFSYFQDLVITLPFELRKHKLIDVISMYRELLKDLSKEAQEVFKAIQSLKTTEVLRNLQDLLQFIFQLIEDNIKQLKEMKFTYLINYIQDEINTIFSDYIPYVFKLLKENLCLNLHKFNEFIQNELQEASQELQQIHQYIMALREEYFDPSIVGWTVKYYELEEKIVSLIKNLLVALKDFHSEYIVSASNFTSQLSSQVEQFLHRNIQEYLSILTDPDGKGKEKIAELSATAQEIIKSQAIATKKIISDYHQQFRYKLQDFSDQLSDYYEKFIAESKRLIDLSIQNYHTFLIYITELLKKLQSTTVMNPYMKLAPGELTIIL
UniProt Q03135: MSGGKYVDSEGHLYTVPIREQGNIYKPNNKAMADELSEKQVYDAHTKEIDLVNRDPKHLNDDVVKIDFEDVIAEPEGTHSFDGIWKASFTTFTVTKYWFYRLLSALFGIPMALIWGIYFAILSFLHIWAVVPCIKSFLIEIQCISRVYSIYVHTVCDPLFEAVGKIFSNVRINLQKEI
UniProt P48679, residues 1-647: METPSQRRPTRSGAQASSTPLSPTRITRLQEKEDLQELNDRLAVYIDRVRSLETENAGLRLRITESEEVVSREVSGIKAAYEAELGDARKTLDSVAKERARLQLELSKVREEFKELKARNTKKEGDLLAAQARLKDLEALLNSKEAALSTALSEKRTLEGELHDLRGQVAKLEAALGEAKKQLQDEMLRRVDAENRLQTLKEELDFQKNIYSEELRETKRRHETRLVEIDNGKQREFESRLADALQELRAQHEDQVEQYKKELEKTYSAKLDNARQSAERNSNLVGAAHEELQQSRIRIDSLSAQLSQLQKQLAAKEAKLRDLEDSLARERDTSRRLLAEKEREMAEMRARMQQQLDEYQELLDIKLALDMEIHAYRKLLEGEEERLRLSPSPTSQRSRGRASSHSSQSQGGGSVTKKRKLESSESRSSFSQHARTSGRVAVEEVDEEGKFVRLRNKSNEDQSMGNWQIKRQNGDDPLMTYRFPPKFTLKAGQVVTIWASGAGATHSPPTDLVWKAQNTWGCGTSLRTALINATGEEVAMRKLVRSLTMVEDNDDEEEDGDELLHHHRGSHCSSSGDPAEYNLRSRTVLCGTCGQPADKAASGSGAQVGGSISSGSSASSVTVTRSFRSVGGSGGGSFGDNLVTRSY
UniProt P11507: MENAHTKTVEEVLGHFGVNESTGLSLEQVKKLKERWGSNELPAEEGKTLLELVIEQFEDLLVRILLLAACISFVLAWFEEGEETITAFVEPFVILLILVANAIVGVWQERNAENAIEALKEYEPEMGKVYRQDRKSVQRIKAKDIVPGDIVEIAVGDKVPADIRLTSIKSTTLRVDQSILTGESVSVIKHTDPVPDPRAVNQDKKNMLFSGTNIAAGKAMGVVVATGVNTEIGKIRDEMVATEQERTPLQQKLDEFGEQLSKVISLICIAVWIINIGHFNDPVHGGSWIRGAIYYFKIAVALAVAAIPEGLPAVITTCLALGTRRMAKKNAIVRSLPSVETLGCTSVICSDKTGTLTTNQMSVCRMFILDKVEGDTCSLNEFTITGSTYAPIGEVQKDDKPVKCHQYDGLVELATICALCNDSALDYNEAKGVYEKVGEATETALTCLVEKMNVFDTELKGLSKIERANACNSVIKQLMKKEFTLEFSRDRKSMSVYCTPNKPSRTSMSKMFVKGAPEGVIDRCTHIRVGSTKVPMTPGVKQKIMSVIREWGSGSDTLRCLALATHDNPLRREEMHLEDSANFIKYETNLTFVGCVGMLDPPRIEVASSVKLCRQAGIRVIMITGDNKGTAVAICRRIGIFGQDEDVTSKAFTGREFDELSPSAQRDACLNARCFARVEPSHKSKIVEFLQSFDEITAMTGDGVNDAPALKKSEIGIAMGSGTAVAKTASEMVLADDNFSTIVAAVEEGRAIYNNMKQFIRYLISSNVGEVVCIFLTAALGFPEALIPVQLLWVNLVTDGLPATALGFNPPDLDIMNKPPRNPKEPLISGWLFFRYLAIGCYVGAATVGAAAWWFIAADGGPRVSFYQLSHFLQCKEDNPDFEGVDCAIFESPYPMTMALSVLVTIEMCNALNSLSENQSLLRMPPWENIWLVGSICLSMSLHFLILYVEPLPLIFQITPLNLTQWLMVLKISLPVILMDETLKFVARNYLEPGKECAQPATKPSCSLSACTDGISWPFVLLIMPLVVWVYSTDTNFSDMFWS

Test [1] deals with T1, HA-Flag-TMEM43 wild type (transmembrane protein 43), stably expressed in A549 cells (UniProt Q9BTV4).
T1 sequence: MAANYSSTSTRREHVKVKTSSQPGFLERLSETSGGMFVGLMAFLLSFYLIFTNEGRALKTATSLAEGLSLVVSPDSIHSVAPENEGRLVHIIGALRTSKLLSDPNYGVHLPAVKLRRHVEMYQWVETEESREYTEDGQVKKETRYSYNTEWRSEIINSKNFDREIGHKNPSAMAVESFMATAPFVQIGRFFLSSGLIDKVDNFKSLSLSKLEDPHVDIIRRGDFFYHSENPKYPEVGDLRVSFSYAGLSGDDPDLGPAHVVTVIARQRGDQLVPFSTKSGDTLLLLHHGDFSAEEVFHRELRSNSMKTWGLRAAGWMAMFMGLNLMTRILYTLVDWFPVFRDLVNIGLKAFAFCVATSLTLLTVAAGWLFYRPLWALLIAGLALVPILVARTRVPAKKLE
Kind of test: affinity purification with mass spectrometry; A549 cells stably expressing vector, HA-Flag-TMEM43 WT or S358L (triplicates); lysis in 150mM NaCl, 50mM Tris-HCl (pH 7.4), 1mM EDTA, 1% Triton X-100; anti-FLAG M2 gel, elution with 3XFlag peptide, then anti-HA gel; label-free quantitative LC-MS/MS.

Test [2] deals with T2, 3xHA-Turbo-TMEM43 (TurboID fusion of wild-type TMEM43) (UniProt Q9BTV4).
T2 sequence: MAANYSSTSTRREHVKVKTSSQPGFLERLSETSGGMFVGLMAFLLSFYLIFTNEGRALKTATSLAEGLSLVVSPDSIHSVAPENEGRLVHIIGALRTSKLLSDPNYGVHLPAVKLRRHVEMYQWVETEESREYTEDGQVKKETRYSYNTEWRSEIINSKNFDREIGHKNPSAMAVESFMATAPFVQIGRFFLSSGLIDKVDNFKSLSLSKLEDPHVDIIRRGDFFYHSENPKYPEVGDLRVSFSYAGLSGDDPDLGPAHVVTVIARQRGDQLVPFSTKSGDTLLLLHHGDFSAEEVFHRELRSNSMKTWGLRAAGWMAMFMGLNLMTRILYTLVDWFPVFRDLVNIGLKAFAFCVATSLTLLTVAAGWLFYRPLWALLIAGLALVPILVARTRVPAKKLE
Kind of test: proximity labelling; H9c2 cells transfected with 3xHA-Turbo-TMEM43 or its S358L mutant; 50μM biotin for 30 min; RIPA lysate on streptavidin magnetic beads; Western blotting of biotinylated proteins. Background: A western blot detects proteins with antibodies after separation by electrophoresis.

The target in test [3] is T3, 3xHA-Turbo-TMEM43 S358L (TurboID fusion of the TMEM43 S358L mutant) (UniProt Q9BTV4).
T3 sequence: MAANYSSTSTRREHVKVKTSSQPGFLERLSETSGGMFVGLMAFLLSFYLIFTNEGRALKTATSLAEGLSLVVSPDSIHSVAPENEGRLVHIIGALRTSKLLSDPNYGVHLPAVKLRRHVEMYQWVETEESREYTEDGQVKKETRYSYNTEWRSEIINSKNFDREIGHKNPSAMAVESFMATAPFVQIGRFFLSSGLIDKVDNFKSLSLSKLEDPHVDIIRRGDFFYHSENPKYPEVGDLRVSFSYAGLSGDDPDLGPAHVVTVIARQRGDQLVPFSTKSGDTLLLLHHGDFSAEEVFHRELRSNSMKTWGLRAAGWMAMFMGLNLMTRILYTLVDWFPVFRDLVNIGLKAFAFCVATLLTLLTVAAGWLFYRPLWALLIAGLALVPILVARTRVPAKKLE
Described as above.

No constants are given. Whether binding was seen depends on the method and setting. In cells and extracts the contact can be indirect. Here binding means that the protein was enriched with, or labelled near, the bait; the list need not be complete. Sequences can lack the tags named with a protein.

Consider “Apolipoprotein B (APOB), endogenous in A549 cells (from UniProt P04114 28-4563)”, for which the binding entry in test [1] is on record as “binds”. Still for that read-out and setting: the same measure for “Caveolin 1 (CAV1), endogenous in A549 cells (from UniProt Q03135 1-178)”: “binds”.

Regarding “Lamin A/C (LMNA), endogenous in H9c2 cells (from UniProt P48679 1-647)”, the binding result in test [2] and in test [3] was “binds” throughout.

In the case of “Sarcoplasmic/Endoplasmic Reticulum Calcium ATPase 2 (SERCA2 or ATP2A2), endogenous in H9c2 cells (from UniProt P11507 1-1043)”, the binding result in test [2] and in test [3] was “binds” throughout. With “Voltage-dependent anion-selective channel protein 1 (VDAC1), endogenous in A549 cells (from UniProt P21796 1-283)”, the binding entry in test [1] is on record as “binds”.

B1: Emerin (EMD), endogenous in H9c2 cells (protein, UniProt Q63190 1-260)
chain: MDDYAVLSDTELAAVLRQYNIPHGPILGSTRKLYEKKIFEYETQRRRLSPPSSSSSSFSYRFSDLDSASVDSDMYDLPKKEDALLYQSKDYNDDYYEESYLTTRTYGEPESVGMSKSFRRPGTSLVDADDTFHHQVRDDIFSSSEEEGKDRERPIYGRDSAYQSIAEYRPISNVSRSSLGLSYYPRSSTSSVSSSSSSPSSWLTRRAIRPEKQAPTAALGQDRQVPLWGQLLLFLAFATFLLFVYYSIQAQEGNPFWMDP
Consider B1, for which the binding entry in test [2] and in test [3] was “binds” throughout.
